In this series the test system is fixation de la (³H)BTCP dans le striatum de souris. As to the kind of experiment: Inhibition of in vivo (3H)BTCP binding in mouse striatum (Example 40). How it is done:
Exemple 40 : Etude de l'inhibition de la fixation "in vivo" de (³H)BTCP chez la souris.
Pour cette étude, on utilise des souris Swiss mâles pesant 20 à 25g. Les souris sont réparties par groupes et alimentées avec de la nourriture standard de laboratoire et de l'eau à volonté, en réalisant des cycles de lumière artificielle de 12h consécutives à partir de 7h du matin. Les expériences sont effectuées entre 10h et 18h. Les mesures de la fixation "in vivo" de la (³H)BTCP sont effectuées comme il a été décrit par Maurice et al, 1989, de la façon suivante.
On injecte aux souris par voie sous-cutanée le composé à tester dans 100µl de solution physiologique pour les composés n^o 4 et n^o 16 et dans 100µl d'un mélange 1:1 en volume de solution physiologique et de DMSO pour le composé n^o 26. 60 min après cette injection on leur injecte dans une veine de la queue (³H)BTCP à une dose de 5µCi dans 100µl d'un mélange de solution physiologique et d'éthanol à 5%. 30min après cette injection, on sacrifie les souris. Les striata de cerveaux sont rapidement disséqués et homogénéisés avec un ultra turrax (IKA Verk) réglage maximum pendant 20s dans 80 volumes d'un tampon Na₂HPO₄, HCl 50mM, pH=7,4 à 4°C. Deux aliquots de […] sont filtrées sous pression réduite sur des filtres GF/B (Whatman) prétraités par de la polyéthylène imine à 0,5% (Aldrich). On rince ensuite les filtres deux fois avec 5ml d'un tampon NaCl 50mM, tris-HCl 10mM, pH=7,4 à 4°C. La radioactivité fixée qui reste sur les filtres, et la radioactivité totale, obtenue à partir des deux aliquots de 200µl d'homogénats sont mesurées dans des flacons de 6ml contenant 3,5ml de ACS (Amersham) avec un spectrophotomètre à scintillation liquide Excel 1410 (LKB). La fixation non spécifique est définie comme la radioactivité présente dans chaque région après prétraitement des animaux avec de la BTCP (40mg/kg dans 100µl de solution saline), injectée par voie sous-cutanée, 60min avant l'injection de (³H)BTCP. Les résultats sont exprimés sous la forme des rapports radioactivité fixée / radioactivité libre (B/F) dans lesquels le taux de (³H)BTCP libre est estimé en soustrayant la radioactivité fixée de la radioactivité totale.

Molecules are shown by their SMILES.

Consider `c1ccc2cc(C3(N4CCCCC4)CCCCC3)ccc2c1` [composé n^o 16, (naphtyl-2)-1 (pipéridi-no-1)-1 cyclohexane], for which the “Nombre de Hill” value is 0,84. In the case of `c1ccc2oc(C3(N4CCCCC4)CCCCC3)cc2c1` [composé n^o 4, (benzo(b)furannyl-2)-1 (pipéridino-1)-1 cyclohexane], the “Nombre de Hill” value is 1,13. Then `OC1CCN(C2(c3cc4ccccc4s3)CCCCC2)CC1` [composé 26, (benzo(b)thiophényl-2)-1( (ol-4-pipéridino)-1)-1 cyclohexane], with 0,74; and `c1ccc2sc(C3(N4CCCCC4)CCCCC3)cc2c1` [BTCP, (benzo(b)thiophényl-2)-1 (pipéridino -1) cyclohexane, reference compound], with 1,12.

The record behind these values is EP0406111A1, “Substituted arylamines and heteroarylamines, process for their preparation and pharmaceutical composition containing them” (SOCIETE DE CONSEILS DE […] D'APPLICATIONS SCIENTIFIQUES …, priority 1989, dated 1991).
